Laboratory results published in article doi:10.1101/831701.
Results are given in words; binding and its absence hold for the method and conditions named. Binding seen in cells or lysates may run through a third protein. Some binding calls cover weakened binding; strength is not graded here. For some assays here: Tags and fused reporters may be left off the sequences shown.

Amino acid sequences for entries named in this document (tags omitted).
UniProt O95568: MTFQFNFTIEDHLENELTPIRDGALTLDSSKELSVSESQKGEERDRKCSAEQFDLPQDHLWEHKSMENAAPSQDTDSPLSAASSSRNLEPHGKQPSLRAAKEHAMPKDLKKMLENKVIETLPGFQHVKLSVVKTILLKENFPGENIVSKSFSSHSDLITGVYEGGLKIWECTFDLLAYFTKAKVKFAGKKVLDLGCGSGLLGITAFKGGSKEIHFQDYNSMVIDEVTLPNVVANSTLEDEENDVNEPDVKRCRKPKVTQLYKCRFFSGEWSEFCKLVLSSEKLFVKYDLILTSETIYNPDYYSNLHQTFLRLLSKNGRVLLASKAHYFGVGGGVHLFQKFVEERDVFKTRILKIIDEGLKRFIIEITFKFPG

Legend:
[1] = molecular target: Myc-tagged wild type METTL18 construct (Myc-METTL18) (human) (UniProt O95568); assay: co-IP
[2] = molecular target: HA-HSP90AA1 (UniProt P07900); assay: co-IP

Molecule: HA-HSP90AA1 (from UniProt P07900 1-732)
- binding [1]: binds

B1: Flag-SETD3 (enzyme, UniProt Q86TU7 1-594)
chain: MGKKSRVKTQKSGTGATATVSPKEILNLTSELLQKCSSPAPGPGKEWEEYVQIRTLVEKIRKKQKGLSVTFDGKREDYFPDLMKWASENGASVEGFEMVNFKEEGFGLRATRDIKAEELFLWVPRKLLMTVESAKNSVLGPLYSQDRILQAMGNIALAFHLLCERASPNSFWQPYIQTLPSEYDTPLYFEEDEVRYLQSTQAIHDVFSQYKNTARQYAYFYKVIQTHPHANKLPLKDSFTYEDYRWAVSSVMTRQNQIPTEDGSRVTLALIPLWDMCNHTNGLITTGYNLEDDRCECVALQDFRAGEQIYIFYGTRSNAEFVIHSGFFFDNNSHDRVKIKLGVSKSDRLYAMKAEVLARAGIPTSSVFALHFTEPPISAQLLAFLRVFCMTEEELKEHLLGDSAIDRIFTLGNSEFPVSWDNEVKLWTFLEDRASLLLKTYKTTIEEDKSVLKNHDLSVRAKMAIKLRLGEKEILEKAVKSAAVNREYYRQQMEEKAPLPKYEESNLGLLESSVGDSRLPLVLRNLEEEAGVQDALNIREAISKAKATENGLVNGENSIPNGTRSENESLNQESKRAVEDAKGSSSDSTAGVKE
- binding [2]: no binding
